# Experimental data reported in PubChem BioAssay AID1671190 (National Center for Advancing Translational Sciences (NCATS), 2021).
# By UniProt entry, the sequences of proteins in these tests, tags left out. Where a name states a change or a piece, a line headed by the entry shows the natural chain unless it says otherwise.
# UniProt P18054: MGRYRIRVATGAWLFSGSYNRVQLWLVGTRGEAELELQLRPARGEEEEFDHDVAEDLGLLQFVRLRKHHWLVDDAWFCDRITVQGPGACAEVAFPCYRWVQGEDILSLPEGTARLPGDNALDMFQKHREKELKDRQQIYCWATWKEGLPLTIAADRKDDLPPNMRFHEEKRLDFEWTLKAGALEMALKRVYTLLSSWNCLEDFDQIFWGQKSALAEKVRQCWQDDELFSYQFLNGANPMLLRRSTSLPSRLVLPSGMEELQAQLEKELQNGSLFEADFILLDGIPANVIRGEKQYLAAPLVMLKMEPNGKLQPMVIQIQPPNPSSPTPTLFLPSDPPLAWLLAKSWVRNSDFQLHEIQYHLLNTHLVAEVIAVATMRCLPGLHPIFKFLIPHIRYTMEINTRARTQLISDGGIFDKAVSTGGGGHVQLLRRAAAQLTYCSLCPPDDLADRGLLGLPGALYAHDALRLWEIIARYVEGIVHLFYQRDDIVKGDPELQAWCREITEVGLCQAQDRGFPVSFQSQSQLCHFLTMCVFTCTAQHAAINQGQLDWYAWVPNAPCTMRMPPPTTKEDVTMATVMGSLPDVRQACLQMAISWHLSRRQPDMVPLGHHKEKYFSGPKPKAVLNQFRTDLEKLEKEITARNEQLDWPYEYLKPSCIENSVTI
# The whole screen tested about 580,000 compounds, of which about 6,100 (1.1%) were called active. The shares of active, inactive and inconclusive entries below differ from those in the screen. Calls follow the shape of the dose curve; as a rule, active = well fitted inhibition curve with a large enough effect; inconclusive = small, poorly fitted or top-dose-only effect, or another doubt; inactive = no such curve, though single readings can be large or run the other way. A potency beside an inconclusive call is a rough fit, not a confirmed value.
# Target: Polyunsaturated fatty acid lipoxygenase ALOX12 (Homo sapiens) (UniProt P18054)
# Test: Primary qHTS assay for inhibitors of human arachidonate 12S-lipoxygenase (ALOX12): Round 2
# Settings: purified 12hLO, xylenol orange hydroperoxide absorbance; activity change, negative = inhibition: at 108 µM (top of the series) unless noted
# Outline: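 Hydroperoxide product was detected by ferrous iron/xylenol orange as the 573 to 405 nm absorbance ratio. Arachidonic acid at 40 uM (final) was turned over for 30 min at room temperature by 150 nM human 12hLO, pH 7.0 Hepes buffer, after 15 min compound preincubation.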
# % is scaled to controls: 0 for no effect and ±100 for the full control effect; potency is read from the fitted curve at half-maximal effect.
Compound,"activity change, negative = inhibition",Potency
CC(C)(C)C(=O)N(CCN(C(=O)C(C)(C)C)c1ccccc1)c1ccccc1,inactive: 18%,
COc1cc(/C=C(/C#N)C(=O)C(C)C)cc(Cl)c1O,,"inconclusive: 12.6 µM [inhibitor, full curve, poor fit]"
CCCNc1nc2c(c(=O)n(C)c(=O)n2C)n1Cc1ccc(F)cc1,inactive: -5.02%,
CCC(CC)NC(=O)/C=C/c1ccccc1Cl,,"inconclusive: 50.1 µM [inhibitor, partial curve, poor fit]"
CC(=O)Nc1ccc(NC(=O)Cn2ccn3nc4c(c3c2=O)CCCCC4)cc1,,"inconclusive: 35.5 µM [inhibitor, full curve]"
CC(C)Sc1nc2c(c(=O)[nH]c(=O)n2C)n1Cc1ccccc1,,"inconclusive: 50.1 µM [inhibitor, partial curve, poor fit]"
CNCCCOc1ccc(Cl)cc1C(C)(C)C,,"inconclusive: 31.6 µM [inhibitor, partial curve, poor fit]"
C=C1CC[C@H](O)C/C1=C/C=C1\CCC[C@]2(C)[C@@H]([C@H](C)/C=C/[C@H](C)C(C)C)CC[C@@H]12,,"inconclusive: 39.8 µM [inhibitor, partial curve, poor fit]"
O=C(c1ccc(Cl)cc1)N1CCC2(CC1)C(=O)NCN2CCc1ccc(Cl)cc1,,"inconclusive: 56.2 µM [inhibitor, partial curve, poor fit]"
O=C1C=C(Cl)c2cccc3cccc1c23,,"inconclusive: 0.355 µM [inhibitor, full curve, poor fit]"
CCCCc1ccc(NC(=S)N2CCCC(C)C2)cc1 (stereo not given),,"inconclusive: 50.1 µM [inhibitor, partial curve, poor fit]"
Cc1ccc(-c2nc3scc(CCNS(=O)(=O)c4ccc(F)c(C)c4)n3n2)cc1,inactive: -6.43%,
CN(CCc1ccccc1)C(=O)c1cccc(NC(=O)Cc2cccc(NC(=O)C3CCCN(C(=O)CCc4ccccc4)C3)c2)c1 (stereo not given),,"inconclusive: 31.6 µM [inhibitor, single point]"
Cc1cc2nc3n(c(=O)c2n1CC(=O)Nc1ccc(Cl)cc1)CCCCC3,,"inconclusive: 50.1 µM [inhibitor, partial curve]"
N#CC1=C(N)OC2=C(C(=O)CCC2)C12CCN(C(=O)OCc1ccccc1)CC2,,"inconclusive: 31.6 µM [inhibitor, partial curve, poor fit]"
O=C(c1[nH]c2ccccc2c1Sc1ccc(Cl)cc1)N1CCCCC1,,"inconclusive: 126 µM [inhibitor, single point]"
CC(=O)c1c(C)oc2cc(C)c(NS(=O)(=O)c3ccc(C(C)(C)C)cc3)cc12,,"inconclusive: 0.251 µM [inhibitor, full curve, poor fit]"
COCC(=O)N1CCCC(C(=O)N2CCC(OCc3ccccc3)CC2)C1 (stereo not given),,"inconclusive: 0.891 µM [inhibitor, full curve, poor fit]"
O=Nc1ccc(NO)c2ccccc12,inactive: -23.5%,
COc1ccc(/C=C/C(=O)NC(=S)NNC(=O)c2cccnc2)cc1OC,inactive: 0%,
Cc1[nH][nH]c(=O)c1C(c1ccc(-c2ccc(Cl)c(Cl)c2)o1)c1c(C)[nH][nH]c1=O,,"inconclusive: 44.7 µM [inhibitor, partial curve, poor fit]"
COc1ccc(-c2cnc3n[nH]c(-c4sccc4C)c3n2)cc1OC,,"inconclusive: 39.8 µM [inhibitor, partial curve]"

# No new results follow: an excerpt of the list.
Compound,"activity change, negative = inhibition",Potency
CC(=O)Nc1ccc(NC(=O)Cn2ccn3nc4c(c3c2=O)CCCCC4)cc1,,"inconclusive: 35.5 µM [inhibitor, full curve]"
CC(C)Sc1nc2c(c(=O)[nH]c(=O)n2C)n1Cc1ccccc1,,"inconclusive: 50.1 µM [inhibitor, partial curve, poor fit]"

# The listing continues:

Compound,"activity change, negative = inhibition",Potency
CC(C(=O)Nc1ccc(OCc2ccccc2)cc1)N1CCCC1 (stereo not given),inactive: 0%,
CSC1=NC2C(N1)N(C)C(=O)N2C (stereo not given),,"inconclusive: 3.98 µM [inhibitor, full curve, poor fit]"
CCOc1ccc(CN2CCN(C/C=C/c3ccc(OC)cc3)CC2CCO)cc1 (stereo not given),inactive: -1.7%,
CCOc1ccccc1CNCc1c(C(=O)O)c(C)n(Cc2ccc(Cl)cc2)c1C,inactive: -26.3%,
Cc1cccc(-n2nnnc2SCC(=O)c2cc(C)n(Cc3ccco3)c2C)c1,,"inconclusive: 89.1 µM [inhibitor, single point]"
CCn1c(-c2ccc(F)cc2)n[nH]c1=S,,"inconclusive: 35.5 µM [inhibitor, partial curve, poor fit]"
CCOCCCn1c(=S)[nH]c2cc(C(=O)N3CCC(C(N)=O)CC3)ccc2c1=O,,"inconclusive: 3.16 µM [inhibitor, full curve]"
Cc1noc(-c2cn(C3CCN(C(=O)c4ccc[nH]4)C3)nn2)n1 (stereo not given),,"inconclusive: 28.2 µM [inhibitor, full curve]"
NC(CCC(=O)O)C12CC3CC(CC(C3)C1)C2 (stereo not given),,"inconclusive: 44.7 µM [inhibitor, partial curve, poor fit]"
O=C1/C(=C/c2ccc(F)c(F)c2)Cc2ccccc21,inactive: 1.21%,
COc1cccc(Cn2c(=O)c(-c3cc(F)cc(F)c3)nc3cnc(N4CCNCC4)nc32)c1,,"inconclusive: 44.7 µM [inhibitor, partial curve, poor fit]"
O/N=C\c1cnc(N2CCN(c3ccccc3)CC2)s1,inactive: 51.9%,
COc1ccc(NC(=O)CCSc2nc(-c3ccco3)cc(C(F)(F)F)n2)cc1,,"inconclusive: 56.2 µM [inhibitor, partial curve, poor fit]"
CC(C)NC[C@H]1Cn2c(-c3ccc(Cl)cc3)cnc2CO1,inactive: -4.29% [at 176 µM],
Nc1nonc1C(=O)N/N=C/c1cc(Br)ccc1O,,"inconclusive: 22.4 µM [inhibitor, partial curve, poor fit]"
CC(C)=CCCC1(C)C=Cc2c(O)c3c(c(CC=C(C)C)c2O1)OC12C(=CCCC1C(C)(C)O[C@@]2(C/C=C(\C)C(=O)O)C(=O)O)C3=O (stereo not given in full),,"inconclusive: 35.5 µM [inhibitor, partial curve, poor fit]"
Clc1ccc(Sc2oc(/C=N/n3cnnc3)cc2Br)cc1,,"inconclusive: 12.6 µM [inhibitor, full curve, poor fit]"
CCCn1c(C)cc(/C=C(\C#N)C(=O)OCC(=O)NC(=O)NCC)c1C,inactive: 14.8%,
COc1ccc(CCNC(=S)NCc2cccs2)cc1OC,inactive: -18.6%,
COc1cc(C(=S)N2CCN(c3ccccc3Cl)CC2)cc(O)c1O,,"inconclusive: 2.24 µM [inhibitor, full curve, poor fit]"
CCN(C(=O)c1cc2c(=O)oc3ccc(C)cc3c2s1)c1cc(OC)ccc1OC,,"inconclusive: 3.55 µM [inhibitor, full curve, poor fit]"
Cc1cccc(N(Cc2ccccc2)C(=O)c2ccccc2F)c1,,"inconclusive: 11.2 µM [inhibitor, full curve, poor fit]"

Compound,"activity change, negative = inhibition",Potency
CC(C)Cn1cc(-c2cncc3nccn23)cn1,,"inconclusive: 79.4 µM [inhibitor, partial curve, poor fit]"
Cc1[nH]c2ccccc2c1/C=N/Nc1ccccn1,inactive: -7.59%,
C=CCNC(=S)N/N=C/c1ccc(C)cc1C,,"inconclusive: 44.7 µM [inhibitor, partial curve, poor fit]"
Cc1cc(=O)c2c(o1)C(=O)c1occc1C2=O,,"inconclusive: 17.8 µM [inhibitor, full curve, poor fit]"
Cc1cccnc1NC(=O)c1cccc(S(=O)(=O)N2CCN(c3ccccc3)CC2)c1,inactive: -1.41%,
COc1cccc(-c2nnnn2[C@H]2CO[C@H]3[C@@H]2OC[C@@H]3NC(=O)c2ccccc2C(=O)O)c1,,"inconclusive: 44.7 µM [inhibitor, partial curve]"
O=C(CCc1nnc(C2(c3ccc(Cl)cc3)CCC2)o1)NC1CC1,inactive: 9.23%,
Cc1cc(Cl)ccc1NNC(=O)c1snnc1C,,"inconclusive: 6.31 µM [inhibitor, partial curve, poor fit]"
CC(C)(C)NC(=O)CSc1nc2ccc(NC(=O)CSc3nnnn3Cc3ccccc3)cc2s1,inactive: 3.76%,
O=C(NCc1cccnc1)c1cc(C2CCCCN2C(=O)c2cccs2)on1 (stereo not given),,"inconclusive: 31.6 µM [inhibitor, single point]"
c1ccc(-c2nc(-c3ccncc3)n[nH]2)nc1,,inactive
O=C(CCl)NCCN1C(=O)S/C(=C\c2cccnc2)C1=O,,"inconclusive: 50.1 µM [inhibitor, partial curve, poor fit]"
Cc1nn(-c2ccc(C(C)(C)C)cc2)c(C)c1[C@@H]1C=C[C@@H](NC(=O)NC(C)C)C1,,"inconclusive: 8.91 µM [inhibitor, full curve]"
O=C(O)CCn1cnc2onc(-c3cc(F)cc(F)c3)c2c1=O,,"inconclusive: 28.2 µM [inhibitor, partial curve, poor fit]"
Nc1nccnc1C(=O)NCCNC(=O)c1ccc(Cl)c(Cl)c1,,"inconclusive: 5.01 µM [inhibitor, full curve, poor fit]"
CCCCC(=O)NC(c1ccc(C(C)C)cc1)c1ccc2cccnc2c1O (stereo not given),inactive: -10.4%,
COc1ccc(NC(=O)C(=O)NCC(c2ccco2)N2CCc3ccccc3C2)cc1OC (stereo not given),,"inconclusive: 39.8 µM [inhibitor, partial curve, poor fit]"
CCCNc1c(NC(=O)Nc2ccc(CC)cc2)c(=O)oc2ccccc12,,"inconclusive: 35.5 µM [inhibitor, partial curve, poor fit]"
CCOc1ccc(-c2cc3c(=O)n(CC(=O)NCc4ccc(Cl)cc4)ccn3n2)cc1,,"inconclusive: 141 µM [inhibitor, partial curve, poor fit]"
O=C(NCC(c1cccs1)N1CCOCC1)c1ccc(Cl)nc1 (stereo not given),,"inconclusive: 141 µM [inhibitor, single point]"
O=C(O)CSCc1c[nH]c2ccccc12,,"inconclusive: 2.82 µM [inhibitor, full curve, poor fit]"
